Assay results taken from PubChem BioAssay AID493014 (National Center for Advancing Translational Sciences (NCATS), 2011).
About 170 (0.05%) of roughly 340,000 compounds were called active. The inconclusive results got no clear call from the source; some entries with a clear call stand among them for comparison. Calls come from the whole dose curve; as a rule, active = well fitted inhibition curve with a large enough effect in the signal ratio, with a control signal flat (not every such curve was filed as active); inconclusive = small, poorly fitted or top-dose-only effect, or effect the other way, or a change in a side signal; inactive = flat fitted curve, though single readings scatter; the % refers to the signal ratio. Where the call is inconclusive, the potency comes from a doubtful curve fit.

Assay: qHTS Assay to Find Inhibitors of Chronic Active B-Cell Receptor Signaling;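 for activity change, negative = inhibition: plate controls were basal doxycycline-induced cells for no effect and cells given 10 µM MG132 for full effect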
Conditions: ABC-DLBCL IkBa-CBG/CBR reporter, luminescence ratio (green luciferase fused to IkBa over red control in TMD8 lymphoma cells), 4 h; activity change, negative = inhibition: at 46.1 µM (top of the series)
Procedure, shortened: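 TMD8 ABC-DLBCL cells carrying doxycycline-inducible green luciferase fused to IkappaBalpha plus unfused red luciferase were exposed to compounds (up to 46 uM) for 4 hrs at 37C. Activity came from the overlap-corrected green/red luminescence ratio.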
Potency is the fitted concentration of half-maximal effect.

| Structure (SMILES) | activity change, negative = inhibition | Potency |
| --- | --- | --- |
| O=C(O)C1C2CCC(C2)C1C(=O)NCc1ccccn1 (stereo not given) | inconclusive: -0.544% |  |
| Cc1ccccc1CSc1nnc2[nH]c(=O)cc(C)n12 | inconclusive: 10% |  |
| O=C(NC1CC(=O)N(c2ccc(Cl)cc2)C1)c1ccc(S(=O)(=O)N2CCCC2)cc1 (stereo not given) | inactive: 7.17% |  |
| O=S(=O)(NCc1cn2ccccc2n1)c1ccccc1F | inconclusive: 13.1% |  |
| Cc1cc(C(=O)Nc2nc3ccc(S(C)(=O)=O)cc3s2)c(C)o1 |  | inconclusive: 3.26 µM [falling, partial curve, poor fit] |
| COc1cc(Cl)c(C)cc1NC(=O)CSc1nnc(-c2cccnc2)n1Cc1ccco1 | inconclusive: 3.06% |  |
| O=C(OCCc1cc2ccccc2c(=O)o1)c1ccco1 | inconclusive: 4.93% |  |
| CCC(c1nnnn1Cc1ccco1)N(CCc1ccccc1)Cc1cc2ccc(OC)cc2[nH]c1=O (stereo not given) | inconclusive: -1.63% |  |
| c1ccc(-n2ncc3c(NC4CCCCCC4)ncnc32)cc1 |  | inconclusive: 35.5 µM [falling, single point] |
| CCN(CC)C(=O)c1cc(Cl)ccn1 | inconclusive: 12.5% |  |
| O=C(N/N=C/c1cccnc1)c1cc(-c2ccc(Br)cc2)nc2ccccc12 | inconclusive: 3.29% |  |
| O=C(NC(Cc1ccccc1)C(=O)O)c1ccccc1 (stereo not given) | inconclusive: -2.68% |  |
| COc1ccc(C(=O)CCN2CCc3cc(OC)c(OC)cc3C2)cc1 |  | inconclusive: 35.5 µM [rising, single point] |
| O=C(Nc1cccc2cccnc12)c1ccc(Cl)cc1 |  | inconclusive: 31.6 µM [falling, single point] |
| Cc1ccc(-c2nn(CCC(=O)Nc3cccnc3)c(=O)c3ccccc23)cc1 |  | inconclusive: 22.4 µM [falling, single point] |
| Cc1ccc(C)c(CN2CCNC2=O)c1 | inconclusive: 0.475% |  |
| O=c1c2ccccc2nc(-c2cccc(Cl)c2)n1O |  | inconclusive: 23.1 µM [falling, single point] |
| CC1C(=O)N2CCCc3cc(S(=O)(=O)Nc4ccccc4F)cc1c32 (stereo not given) | inconclusive: 4.7% |  |
| COc1ccc(NC(=O)CNC(=O)Cn2cnc3sc4c(c3c2=O)CCCC4)cc1OC | inactive: -8.68% |  |
| CCN(CC)C(=O)c1cc2c(=O)oc3ccccc3c2s1 |  | inconclusive: 29.1 µM [falling, single point] |

| Structure (SMILES) | activity change, negative = inhibition | Potency |
| --- | --- | --- |
| O=C(NCCCCO)C(F)(F)C(F)(F)C(F)(F)C(=O)NCCCCO | inconclusive: -5.62% |  |
| O=C(Nc1ccccc1C(=O)N1CCOCC1)c1cc2ccccc2o1 |  | inconclusive: 12.6 µM [falling, single point] |
| CC(C)NCC(O)COCCOc1ccc(Cl)cc1 (stereo not given) | inconclusive: -162% |  |
| CC(C)n1c(=S)[nH]c2ccccc21 | inconclusive: -6.9% |  |
| Cc1ccc(CONC(=O)c2ccc(Cl)cc2)cc1 |  | inconclusive: 6.51 µM [falling, partial curve, poor fit] |
| CO/N=C/c1cccn1-c1nccc(OC)c1C#N |  | inconclusive: 35.5 µM [falling, partial curve, poor fit] |
| CCN1CCN(C(CNS(=O)(=O)c2ccc(C)cc2)c2ccccc2)CC1 (stereo not given) | inactive: 7.16% |  |
| COC(=O)c1ccc(N=Cc2c(-c3ccccc3)[nH][nH]c2=O)cc1 | inconclusive: -0.0297% |  |
| CC(C)Cn1c(CCC(=O)O)ccc1-c1cccs1 | inconclusive: 13.3% |  |
| O=C(CN1C(=O)/C(=C/c2ccco2)SC1=S)Nc1ccc(C(=O)O)c(O)c1 | inactive: 0.584% |  |
| Cc1ccc(/C=C2/SC(=S)N(c3ccc(S(=O)(=O)Nc4nccs4)cc3)C2=O)cc1 | inconclusive: -18.7% |  |
| O=C(/C=C/c1ccccc1)c1ccc2c3c(cccc13)CC2 |  | inconclusive: 29.1 µM [falling, single point] |
| O=C(CCC(=O)Nc1ccccc1)NNS(=O)(=O)c1ccc(Cl)cc1 | inconclusive: -4.95% |  |
| COc1ccc(-c2cc(C(=O)N(C)Cc3ccccc3F)c3ccccc3n2)cc1OC | inactive: -3.09% |  |
| CCOC(=O)N1CCC(=NNc2ncc(C(F)(F)F)cc2Cl)CC1 | inactive: -4.4% |  |
| C/C(=N\NC(=O)c1ccc(Cn2cc(Br)cn2)o1)c1cccc(NC(=O)C(C)C)c1 | inconclusive: -18.4% |  |
| CCCc1ccc(-c2cc(C(=O)NN3CCOCC3)c3ccccc3n2)cc1 |  | inconclusive: 2 µM [falling, full curve, poor fit] |
| COC(=O)C1=C(C)NC(=O)NC1c1cn(-c2ccccc2)nc1-c1ccc(OC)c(Cl)c1 (stereo not given) |  | inconclusive: 20 µM [falling, partial curve, poor fit] |
| O=C(Cn1ncc2c3ccccc3n(Cc3ccccc3)c2c1=O)NCCCN1CCCC1=O | inconclusive: 4.95% |  |
| N#Cc1nc(-c2ccc(F)cc2)oc1NCc1cccc2c1OCO2 | inactive: 2.82% |  |

Already shown: 7 of the compounds above.

| Structure (SMILES) | activity change, negative = inhibition | Potency |
| --- | --- | --- |
| CC(C)NCC(O)COCCOc1ccc(Cl)cc1 (stereo not given) | inconclusive: -162% |  |
| CC(C)n1c(=S)[nH]c2ccccc21 | inconclusive: -6.9% |  |
| Cc1ccc(CONC(=O)c2ccc(Cl)cc2)cc1 |  | inconclusive: 6.51 µM [falling, partial curve, poor fit] |
| CO/N=C/c1cccn1-c1nccc(OC)c1C#N |  | inconclusive: 35.5 µM [falling, partial curve, poor fit] |
| CCN1CCN(C(CNS(=O)(=O)c2ccc(C)cc2)c2ccccc2)CC1 (stereo not given) | inactive: 7.16% |  |
| COC(=O)c1ccc(N=Cc2c(-c3ccccc3)[nH][nH]c2=O)cc1 | inconclusive: -0.0297% |  |
| CC(C)Cn1c(CCC(=O)O)ccc1-c1cccs1 | inconclusive: 13.3% |  |
